Source: paper PMC4915168

Protein sequences, listed by entry. Tags and fused reporters are not part of them. Lines headed by an entry give the natural chain unless they say otherwise; changes in a name come on top. Residues count along the entry.
UniProt Q8K0Z7: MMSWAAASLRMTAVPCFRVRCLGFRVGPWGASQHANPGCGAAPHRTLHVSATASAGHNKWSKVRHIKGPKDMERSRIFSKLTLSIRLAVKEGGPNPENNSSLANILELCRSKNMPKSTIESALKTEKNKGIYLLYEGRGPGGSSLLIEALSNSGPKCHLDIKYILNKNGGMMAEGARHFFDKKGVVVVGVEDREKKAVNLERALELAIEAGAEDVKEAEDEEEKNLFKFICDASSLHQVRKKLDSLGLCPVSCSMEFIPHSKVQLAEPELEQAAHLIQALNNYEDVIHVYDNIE
UniProt Q8BK72, residues 18-415: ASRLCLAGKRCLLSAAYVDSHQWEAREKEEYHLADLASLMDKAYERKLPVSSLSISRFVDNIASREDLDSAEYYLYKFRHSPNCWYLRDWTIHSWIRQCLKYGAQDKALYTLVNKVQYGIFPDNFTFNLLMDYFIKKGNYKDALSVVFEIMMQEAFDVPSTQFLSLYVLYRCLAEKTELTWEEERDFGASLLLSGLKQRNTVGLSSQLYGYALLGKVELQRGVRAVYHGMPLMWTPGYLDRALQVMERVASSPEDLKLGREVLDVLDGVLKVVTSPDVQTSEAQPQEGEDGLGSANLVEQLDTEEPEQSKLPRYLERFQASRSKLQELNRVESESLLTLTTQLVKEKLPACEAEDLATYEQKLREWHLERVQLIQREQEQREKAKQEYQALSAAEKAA

Legend:
[1] = target: FLAG-tagged TACO1 (translational activator of cytochrome oxidase subunit I) (mouse) (UniProt Q8K0Z7); test: co-IP; anti-FLAG M2 magnetic beads on lysates of co-transfected NIH-3T3 cells crosslinked with 2 mM dithiobis[succinimidyl propionate]; lysis in 10 mM Tris-HCl pH 7.5, 260 mM sucrose, 100 mM KCl, 20 mM MgCl2, 1% digitonin; elution with 3x FLAG peptide; blot with anti-GFP and anti-FLAG
[2] = target: FLAG-tagged MRPS27 (mouse) (UniProt Q8BK72); test: as above

binding [1] | binding [2] | Substance
binds | – | GFP-tagged MRPS27 (from UniProt Q8BK72 18-415)
– | binds | GFP-tagged TACO1 (from UniProt Q8K0Z7)

Results are given in words; binding and its absence hold for the method and conditions named. In cells and extracts the contact can be indirect. A result given as binding can be weak or reduced; the word gives no strength.
